B1: B10.3 (affinity-matured mutant of B10) (scFv)
scFv: QVQLQQSGAEVKKPGSSVKVSCKASGGTFSKSAIQWVRQAPGQGLEWMGGVIPIFGTANYAQKFQGRVTITADESTSTAYMELSSLRSEDTAVYYCARGWYLDLWGRGTLVTVSSGGSSRSSSSGGGGSGGGGLPVLTQPPSASGTPGQRVTISCSGSSNNIGGYSVNWYQQFPGTAPKLLIYRNNQRPSGVPDRFSGSKSGASASLAISGLQSEDEADYYCAAWDDSVIGWLFGTGTQLTVL
B2: B10.4 (affinity-matured mutant of B10) (scFv)
scFv: QVQLQQSGAEVKKPGSSVKVSCKASGGTFSKSAIMWVRQAPGQGLEWMGGVIPIFGTANYAQKFQGRVTITADESTSTAYMELSSLRSEDTAVYYCARGWYLDLWGRGTLVTVSSGGSSRSSSSGGGGSGGGGLPVLTQPPSASGTPGQRVTISCSGSSNNIGGYSVNWYQQFPGTAPKLLIYRNNQRPSGVPDRFSGSKSGASASLAISGLQSEDEADYYCAAWDDSVIGWLFGTGTQLTVL
B3: B10.5 (affinity-matured mutant of B10) (scFv)
scFv: QVQLQQSGAEVKKPGSSVKVSCKASGGTFSKSAIHWVRQAPGQGLEWMGGVIPIFGTANYAQKFQGRVTITADESTSTAYMELSSLRSEDTAVYYCARGWYLDLWGRGTLVTVSSGGSSRSSSSGGGGSGGGGLPVLTQPPSASGTPGQRVTISCSGSSSNIGGYSVNWYQQFPGTAPKLLIYRNNQRPSGVPDRFSGSKSGASASLAISGLQSEDVADYYCAAWDDSLIGYVFGTGTQLTVL
B4: B10.9 (affinity-matured mutant of B10) (scFv)
scFv: QVQLQQSGAEVKKPGSSVKVSCKASGGTFSKSAIQWVRQAPGQGLEWMGGVIPIFGTANYAQKFQGRVTITADESTSTAYMELSSLRSEDTAVYYCARGWYLDLWGRGTLVTVSSGGSSRSSSSGGGGSGGGGLPVLTQPPSASGTPGQRVTISCSGSSNNIGGYSVNWYQQFPGTAPKLLIYRNNQRPSGVPDRFSGSKSGASASLAISGLQSEDEADYYCAAWDDSEIGWLFGTGTQLTVL

Chains of the proteins cited; added tags and fusions are not shown.
UniProt Q02223: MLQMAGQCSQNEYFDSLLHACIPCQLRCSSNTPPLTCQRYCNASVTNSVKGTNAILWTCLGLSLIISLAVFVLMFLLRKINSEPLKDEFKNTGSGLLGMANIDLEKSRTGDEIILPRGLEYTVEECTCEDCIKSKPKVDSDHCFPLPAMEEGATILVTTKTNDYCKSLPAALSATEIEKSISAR

No constants are given. Whether binding was seen depends on the method and setting. Some entries that bind do so weakly or less than the wild type.

The target of the test is BCMA on the surface of BCMA-positive cell lines H929 (NCI-H929) and RPMI8226 (human) (UniProt Q02223). The experiment in a line: flow cytometry on H929 and RPMI8226 cells. A general note: A flow cytometer gives signals particle by particle.
Consider B1, for which the binding result is given as “binds”.

On to B2, for which the binding result is “binds”.

Take B3: the binding entry was “binds”.

As for B4, the binding entry is listed as “binds”.

Source of the values: CN113061185A.
